Results as given in the supplement of paper PMC12542422.
Structures can show the parent of a compound that is named as a salt. ± gives the standard deviation of the averaged measurements. The list shows a part of the results. Values are raw readings; no control value is given beside them.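 HeLa cells imaged for ribosome-assembly readouts (ENP1 staining with or without export block, or inducible tagged ribosomal protein reporters); machine learning classified each cell's signal location against solvent (DMSO) controls. Hits exceeded the DMSO false-positive mean by five standard deviations, then were visually confirmed; three biological replicates.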

Tested on: HeLa K (ENP1 immunofluorescence, no LMB)
Test: fraction of cells with nucleolar or nucleolar/nucleoplasmic ENP1 signal (MainHitrate); higher = more cells with nucleolar/nuclear readout signal (for ENP1 -LMB: less RNAPI inhibition; for +LMB ENP1 and RP reporters: stronger nuclear/nucleolar retention, i.e. ribosome biogenesis defect)
Conditions: concentration: 1 µM; treatment time: 6 h; ENP1 -LMB; leptomycin B: none

Row | Compound | fraction
1 | CNCC[C@H](Oc1cccc2ccccc12)c1cccs1 [Duloxetine HCl (Cymbalta)] | 0.9968 ± 0.0055
2 | CN(C)[C@@H]1C(O)=C(C(=O)NCN2CCCC2)C(=O)[C@@]2(O)C(O)=C3C(=O)c4c(O)cccc4[C@@](C)(O)[C@H]3C[C@@H]12 [Rolitetracycline] | 0.95 ± 0.087
3 | NNc1nncc2ccccc12 [Hydralazine hydrochloride] | 0.9946 ± 0.0093
4 | NC(=O)Cc1cccc(C(=O)c2ccccc2)c1N [Nepafenac] | 0.9983 ± 0.003
5 | O=C1O[C@H]([C@@H](O)CO)C(O)=C1O [Vitamin C (Ascorbic acid)] | 0.984 ± 0.028
6 | Cc1cc(=O)[nH]c(=S)[nH]1 [Methylthiouracil] | 0.989 ± 0.018
7 | O=C(CCNNC(=O)c1ccncc1)NCc1ccccc1 [Nialamide] | 0.9958 ± 0.0073
8 | Cc1nccn1CC1CCc2c(c3ccccc3n2C)C1=O (stereo not drawn) [Ondansetron (Zofran)] | 0.989 ± 0.02

Tested on: HeLa RPS2-YFP reporter
Test: fraction of reporter-positive cells with nuclear (nucleolar or nucleolar/nucleoplasmic) RPS2-YFP (MainHitrate); higher = more cells with nucleolar/nuclear readout signal (for ENP1 -LMB: less RNAPI inhibition; for +LMB ENP1 and RP reporters: stronger nuclear/nucleolar retention, i.e. ribosome biogenesis defect)
Conditions: concentration: 1 µM; treatment time: 6 h

Row | Compound | fraction of reporter-positive cells with nuclear
9 | CCCCCCCCCCCCCCCCCCCCCCO [Docosanol (Abreva)] | 0.104 ± 0.051
10 | O=C1CC[C@@H](C(=O)N2CSC[C@H]2C(=O)O)N1 [Pidotimod] | 0.0978 ± 0.1
11 | CCCC(=O)O[C@]1(C(=O)COC(C)=O)CC[C@H]2[C@@H]3C[C@H](F)C4=CC(=O)C=C[C@]4(C)[C@@]3(F)[C@@H](O)C[C@@]21C [Difluprednate] | 0.138 ± 0.12
12 | C[C@]12CCC(=O)C=C1[C@@H]1C[C@@H]1[C@H]1[C@@H]3[C@@H]4C[C@@H]4[C@@]4(CCC(=O)O4)[C@@]3(C)CC[C@@H]12 [Drospirenone] | 0.123 ± 0.099
13 | C[C@]12CC[C@@H]3c4ccc(O)cc4C[C@@H](CCCCCCCCC[S+]([O-])CCCC(F)(F)C(F)(F)F)[C@H]3[C@@H]1CC[C@@H]2O (stereo partly drawn) [Fulvestrant (Faslodex)] | 0.111 ± 0.077
14 | CC(=O)OCC[N+](C)(C)C [Acetylcholine chloride] | 0.0682 ± 0.046
15 | CC(C)[N+]1(C)[C@@H]2CC[C@H]1C[C@@H](OC(=O)C(CO)c1ccccc1)C2 (stereo partly drawn) [Ipratropium bromide] | 0.0822 ± 0.046
16 | Cc1ccnc(NS(=O)(=O)c2ccc(N)cc2)n1 [Sulfamerazine] | 0.101 ± 0.079
17 | Clc1ccc(C(Cn2ccnc2)OCc2ccsc2Cl)c(Cl)c1 (stereo not drawn) [Tioconazole] | 0.125 ± 0.084
18 | Nc1ccn(C[C@@H](CO)OCP(=O)(O)O)c(=O)n1 [Cidofovir (Vistide)] | 0.103 ± 0.082
19 | C[C@@H](O[C@H]1OCCN(Cc2nn(P(=O)(O)O)c(=O)[nH]2)[C@H]1c1ccc(F)cc1)c1cc(C(F)(F)F)cc(C(F)(F)F)c1 [Fosaprepitant dimeglumine] | 0.118 ± 0.1
20 | Clc1ccc2c(c1)CCc1cccnc1C2=C1CCNCC1 [Desloratadine] | 0.138 ± 0.097
21 | CN1CCN(C2=Nc3ccccc3Oc3ccc(Cl)cc32)CC1 [Loxapine Succinate] | 0.117 ± 0.083
22 | CS(=O)(=O)c1ccc([C@@H](O)[C@@H](CO)NC(=O)C(Cl)Cl)cc1 [Thiamphenicol (Thiophenicol)] | 0.0924 ± 0.1
23 | COc1ccc2cc(CCC(C)=O)ccc2c1 [Nabumetone] | 0.118 ± 0.098
24 | CC(=O)Oc1ccccc1C(=O)Nc1ncc([N+](=O)[O-])s1 [Nitazoxanide (Alinia, Annita)] | 0.11 ± 0.07
25 | CCOc1ccccc1OC(c1ccccc1)C1CNCCO1 (stereo not drawn) [Reboxetine mesylate] | 0.096 ± 0.073
26 | N=C(N)Nc1ccc(C(=O)Oc2ccc3cc(C(=N)N)ccc3c2)cc1 [Nafamostat mesylate] | 0.095 ± 0.057
27 | CC[C@H](C)C(=O)O[C@H]1CCC=C2C=C[C@H](C)[C@H](CC[C@@H]3C[C@@H](O)CC(=O)O3)[C@H]21 [Mevastatin] | 0.138 ± 0.11
28 | CC(=O)O[C@H]1CC[C@@]2(C)C(=CC[C@@H]3[C@@H]2CC[C@]2(C)C(c4cccnc4)=CC[C@@H]32)C1 [Abiraterone Acetate (CB7630)] | 0.137 ± 0.069

Row | Compound | fraction of reporter-positive cells with nuclear
29 | N[C@@H](CSCCCO)C(=O)O [Fudosteine] | 0.0951 ± 0.077
30 | Cc1c(Nc2ncccc2C(=O)O)cccc1C(F)(F)F [Flunixin meglumin] | 0.0707 ± 0.027
31 | Cc1nnc(C(C)C)n1C1C[C@H]2CC[C@@H](C1)N2CC[C@H](NC(=O)C1CCC(F)(F)CC1)c1ccccc1 (stereo in doubt) [Maraviroc] | 0.129 ± 0.038
32 | C[N+](C)(C)CCCCCC[N+](C)(C)C [Hexamethonium bromide] | 0.118 ± 0.086
33 | O=C1c2cccc3c2[C@H](CCC3)CN1[C@@H]1CN2CCC1CC2 [Palonosetron HCl] | 0.12 ± 0.091
34 | CCOC(=O)C1=C(COCCN)NC(C)=C(C(=O)OC)C1c1ccccc1Cl (stereo not drawn) [Amlodipine besylate (Norvasc)] | 0.109 ± 0.12
35 | CCCNCC(O)COc1ccccc1C(=O)CCc1ccccc1 (stereo not drawn) [Propafenone (Rytmonorm)] | 0.112 ± 0.068
36 | COc1ccc(-n2nc(C(N)=O)c3c2C(=O)N(c2ccc(N4CCCCC4=O)cc2)CC3)cc1 [Apixaban] | 0.108 ± 0.08
37 | O=C(O)c1ccc(NC(=O)[C@H](Cc2ccc(O)cc2)NC(=O)c2ccccc2)cc1 [Bentiromide] | 0.133 ± 0.11
38 | Cc1nc2n(c(=O)c1CCN1CCC(c3noc4cc(F)ccc34)CC1)CCCC2O (stereo not drawn) [Paliperidone (Invega)] | 0.11 ± 0.068
39 | CCOc1ccc2ccccc2c1C(=O)N[C@@H]1C(=O)N2[C@@H]1SC(C)(C)[C@@H]2C(=O)O [nafcillin sodium monohydrate] | 0.122 ± 0.098
40 | O=C(CCCN1CC=C(n2c(=O)[nH]c3ccccc32)CC1)c1ccc(F)cc1 [Droperidol] | 0.14 ± 0.079
41 | CNCC[C@H](Oc1cccc2ccccc12)c1cccs1 [Duloxetine HCl (Cymbalta)] | 0.103 ± 0.085
42 | CN(C)[C@@H]1C(O)=C(C(=O)NCN2CCCC2)C(=O)[C@@]2(O)C(O)=C3C(=O)c4c(O)cccc4[C@@](C)(O)[C@H]3C[C@@H]12 [Rolitetracycline] | 0.192 ± 0.21
43 | NNc1nncc2ccccc12 [Hydralazine hydrochloride] | 0.129 ± 0.089
44 | NC(=O)Cc1cccc(C(=O)c2ccccc2)c1N [Nepafenac] | 0.114 ± 0.055
45 | O=C1O[C@H]([C@@H](O)CO)C(O)=C1O [Vitamin C (Ascorbic acid)] | 0.0855 ± 0.06
46 | Cc1cc(=O)[nH]c(=S)[nH]1 [Methylthiouracil] | 0.0946 ± 0.086
47 | O=C(CCNNC(=O)c1ccncc1)NCc1ccccc1 [Nialamide] | 0.193 ± 0.17
48 | Cc1nccn1CC1CCc2c(c3ccccc3n2C)C1=O (stereo not drawn) [Ondansetron (Zofran)] | 0.11 ± 0.06

Quoted at random: three entries already listed.
Row | Compound | fraction of reporter-positive cells with nuclear
38 | Cc1nc2n(c(=O)c1CCN1CCC(c3noc4cc(F)ccc34)CC1)CCCC2O (stereo not drawn) [Paliperidone (Invega)] | 0.11 ± 0.068
37 | O=C(O)c1ccc(NC(=O)[C@H](Cc2ccc(O)cc2)NC(=O)c2ccccc2)cc1 [Bentiromide] | 0.133 ± 0.11
34 | CCOC(=O)C1=C(COCCN)NC(C)=C(C(=O)OC)C1c1ccccc1Cl (stereo not drawn) [Amlodipine besylate (Norvasc)] | 0.109 ± 0.12
